Out of some 320,000 compounds screened, about 2,100 (0.66%) were called active. The inconclusive results got no clear call from the source; some entries with a clear call stand among them for comparison. Calls come from the whole dose curve; as a rule, active = well fitted inhibition curve with a large enough effect in the signal ratio, with a control signal flat (not every such curve was filed as active); inconclusive = small, poorly fitted or top-dose-only effect, or effect the other way, or a change in a side signal; inactive = flat fitted curve, though single readings scatter; the % refers to the signal ratio. Potencies beside an inconclusive call are fits to weak or partial responses and may not hold up.
Assay: qHTS Assay for Lipid Storage Modulators in Drosophila S3 Cells
Conditions: BODIPY lipid droplet fluorescence, 18-24 h, cells fed with added oleic acid; lipid storage change, negative = inhibition: at 46.1 µM (top of the series) unless noted
Outline: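 Drosophila S3 cells loaded with oleic acid (400 uM, as added) and compounds at several concentrations; lipid droplets imaged by 488-nm laser-scanning cytometry, 500–530 nm intensity and object ratio to cell channel. Percent activity normalized to 20 uM Triacsin C.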
In the case of `CC1(C)CC(=O)C/C(=N/NC(=O)CCCOc2ccc(Cl)cc2Cl)C1`, the lipid storage change, negative = inhibition is reported as inconclusive: 4.69%.
With `O=C(NCC(=O)N(c1cnc2ccccc2c1)C(C(=O)NC1CCCC1)c1ccncc1)c1ccco1` (stereo not given) the lipid storage change, negative = inhibition was inconclusive: 10.2%.
With `COc1ccc(C(=O)NC(=S)Nc2ccc(NC(=O)c3ccco3)cc2)cc1[N+](=O)[O-]` the Potency was inconclusive: 2590 nM [activator, full curve].
In the case of `Cc1nc2ccccc2c2oc(C(=O)Nc3ccc4c(c3)OCCO4)cc12`, the lipid storage change, negative = inhibition is reported as inconclusive: 50.9%.
In the case of `Nc1nc(CSC(=S)N2CCN(c3ccccc3)CC2)nc(Nc2ccc(F)cc2)n1`, the Potency is reported as inconclusive: 1460 nM [falling, partial curve].
In the case of `CN(Cc1ccc(Cl)s1)C(=O)CN1C(=O)N(C)C2(CCCCC2)C1=O`, the lipid storage change, negative = inhibition is reported as inconclusive: -23.5%.
With `COc1ccccc1CNS(=O)(=O)c1ccc(-n2cnnn2)c(C)c1` the Potency was inconclusive: 2910 nM [falling, partial curve, poor fit].
In the case of `COc1ccc(CCN2C(=O)c3[nH]nc(-c4ccccc4O)c3C2c2cccc(O)c2)cc1OC` (stereo not given), the Potency is reported as inconclusive: 411 nM [activator, full curve, poor fit].
With `CC(=O)c1ccc(NC(=O)C2CCCN2S(=O)(=O)c2cccs2)cc1` (stereo not given) the lipid storage change, negative = inhibition was “inconclusive”.
In the case of `CCN(C(=O)COC(=O)c1cccs1)c1c(N)n(Cc2ccccc2)c(=O)[nH]c1=O`, the Potency is reported as inconclusive: 65.1 nM [falling, full curve, poor fit].
In the case of `COc1cc(S(=O)(=O)N(Cc2cccs2)CC2CCCO2)ccc1-n1cnnn1` (stereo not given), the lipid storage change, negative = inhibition is reported as inconclusive: 71.8%.
In the case of `CCN(C(=O)Cn1c(=O)oc2ccccc21)c1c(N)n(Cc2ccccc2)c(=O)[nH]c1=O`, the lipid storage change, negative = inhibition is reported as inconclusive: -17.8%.
In the case of `Cc1c(C(=O)OC(C)C)sc(NC(=O)C2CCCO2)c1C(=O)OC(C)C` (stereo not given), the Potency is reported as inconclusive: 6510 nM [falling, single point].
With `CCNC(=O)C12CCC(C)(C(=O)O1)C2(C)C` (stereo not given) the lipid storage change, negative = inhibition was inconclusive: 0.1%.
In the case of `CCn1cc(S(=O)(=O)N2CCc3ccccc3C2)cn1`, the lipid storage change, negative = inhibition is reported as inconclusive: 0.181%.
With `O=C(Cn1cnc2ccccc2c1=O)Nc1cccc(S(=O)(=O)N2CCCCC2)c1` the lipid storage change, negative = inhibition was inconclusive: 22.2%.
With `COc1ccc(-n2c(C)c(C)c3c(N)ncnc32)cc1` the lipid storage change, negative = inhibition was inconclusive: -0.629%.
For `O=c1[nH]c(CN2CCN(S(=O)(=O)c3ccc4ccccc4c3)CC2)nc2ccccc12`, the Potency was inconclusive: 651 nM [falling, full curve, poor fit].
In the case of `Cc1ccc(-n2ccc(=O)c(C(=O)Nc3ccc(S(=O)(=O)N4CCOCC4)cc3)n2)cc1`, the lipid storage change, negative = inhibition is reported as inconclusive: -7.67%.
For `COC(=O)c1ccc(NC(=S)N2CCN(Cc3ccccc3)CC2)cc1`, the lipid storage change, negative = inhibition was inconclusive: 1.85%.
With `Cc1csc(NC(=O)Nc2ccc(Cl)cc2)n1` the lipid storage change, negative = inhibition was inconclusive: 15.7%.
For `CC(C)c1ccc(NC(=O)COC(=O)CCC(=O)c2cccs2)cc1`, the lipid storage change, negative = inhibition was inconclusive: 18.3%.
For `O=C(c1cc2c(=O)n3ccccc3nc2s1)N1CCc2ccccc2C1`, the lipid storage change, negative = inhibition was inconclusive: 17.8%.
With `CC(C)CCN1C(Nc2ccccc2)=NC[C@@H]1C` the lipid storage change, negative = inhibition was inconclusive: 15.4%.
For `CCN(CC)CCOC(=O)c1ccc(NC(=O)/C=C/c2cccs2)cc1`, the lipid storage change, negative = inhibition was inconclusive: -0.661%.
In the case of `O=C(CN(CC1CCCO1)S(=O)(=O)c1ccc(S(=O)(=O)NC2CC2)cc1)Nc1ccccc1` (stereo not given), the lipid storage change, negative = inhibition is reported as inconclusive: -31.5%.
With `CNC(=S)Nc1ccccc1-c1ccccc1` the “lipid storage change, negative = inhibition” value was inactive: -7.51%.
For `COCCN1CN=C(Nc2nc(C)c3ccc(C)cc3n2)NC1`, the “lipid storage change, negative = inhibition” value was inactive: 7.94%.
With `Cc1cccc(N(CC(=O)NC2CCCC2)C(=O)c2nsc(Cl)c2Cl)c1C` the lipid storage change, negative = inhibition was inconclusive: -29.2%.
For `Nc1ccc2nc(-c3cccc(-c4nc5ccc(N)cc5[nH]4)c3)[nH]c2c1`, the lipid storage change, negative = inhibition was inconclusive: -7.75%.
For `CSCC[C@H](NC(=O)[C@H](Cc1ccccc1)n1c(=O)[nH]c2ccccc2c1=O)C(=O)N1CCC(C(=O)O)CC1`, the lipid storage change, negative = inhibition was inconclusive: 124%.
With `CCCCn1c(NCc2ccncc2)nc2ccccc21` the lipid storage change, negative = inhibition was inconclusive: 14.3%.
With `Cc1nnc(SCC(=O)Nc2ccc(N3CCOCC3)cc2)n1-c1ccccc1` the “lipid storage change, negative = inhibition” value was inactive: -19.7%.
With `CNC(=O)CN1C(=O)COc2ccc(S(=O)(=O)N3CCCCCC3)cc21` the Potency was inconclusive: 6510 nM [falling, single point].
In the case of `CCOC(=O)N1CCN(Cc2nc3c(c(=O)[nH]c(=O)n3C)n2Cc2ccccc2C)CC1`, the lipid storage change, negative = inhibition is reported as inconclusive: 22.2%.
For `COc1ccc(NC(=O)CSc2nnc(Cc3ccccc3)c(=O)n2N)cc1OC`, the lipid storage change, negative = inhibition was inconclusive: 23.5%.
For `O=C1c2ccccc2C(Nc2ccc3nc(-c4cccnc4)[nH]c3c2)N1Cc1ccco1` (stereo not given), the lipid storage change, negative = inhibition was inconclusive: 18.7%.
With `COc1cc(NC(=O)C2CCN(S(=O)(=O)c3ccc4[nH]c(=O)oc4c3)CC2)cc(OC)c1` the Potency was inconclusive: 820 nM [activator, single point].
In the case of `CCCC(NS(=O)(=O)c1ccc(OC)cc1)C(=O)O` (stereo not given), the lipid storage change, negative = inhibition is reported as inconclusive: -5.81%.
In the case of `CN(Cc1ccon1)C(=O)C1CCC(=O)N(CCc2ccc(Cl)cc2)C1` (stereo not given), the lipid storage change, negative = inhibition is reported as inconclusive: 38%.
In the case of `O=C(Nc1ccc(F)cc1F)NC1CCCCCCC1`, the lipid storage change, negative = inhibition is reported as inconclusive: -14.4%.
With `CCC(C)n1cnc2c(c1=O)c1nc3ccccc3nc1n2Cc1ccccc1OC` (stereo not given) the Potency was inconclusive: 20600 nM [activator, single point].
For `COc1ccc(-n2c(=O)c(CCC(=O)NCCc3ccccc3F)nc3ccccc32)cc1`, the Potency was active: 18400 nM.
For `CCOC(=O)C(C(=O)OCC)C1OC(=O)c2cc3c(cc21)C(=O)OC3C(C(=O)OCC)C(=O)OCC` (stereo not given), the lipid storage change, negative = inhibition was inconclusive: -27.3%.
In the case of `Cc1cc(Cl)c(OCCCn2ccnc2)c(Br)c1`, the Potency is reported as inconclusive: 920 nM [activator, partial curve].
For `O=C(Nc1ccon1)c1sc2cc(Cl)ccc2c1Cl`, the Potency was inconclusive: 29100 nM [falling, single point].
In the case of `COc1cc(C)c(Br)cc1S(=O)(=O)N1CCCC1`, the Potency is reported as inconclusive: 146 nM [falling, full curve].
In the case of `CCCNC(=O)c1ccc(SC)cc1OC`, the lipid storage change, negative = inhibition is reported as inconclusive: 42.2%.
With `CC(=O)C1=C(C)NC(SCC(N)=O)=C(C#N)C1C` (stereo not given) the lipid storage change, negative = inhibition was inconclusive: -8.95%.
For `COc1ccc(C=NCC2OCCc3ccccc32)cc1OC` (stereo not given), the lipid storage change, negative = inhibition was inconclusive: -1.66%.
In the case of `Cn1cc(S(=O)(=O)N2CCc3ccccc32)cc1C(=O)Nc1ccc(Cl)cc1`, the lipid storage change, negative = inhibition is reported as inconclusive: -41.5%.
In the case of `COc1ccc(C(C(=O)NC2CCCC2)N(C(=O)c2ccco2)c2cc3c(cc2C(C)=O)OCO3)cc1OC` (stereo not given), the Potency is reported as inconclusive: 18400 nM [falling, partial curve, poor fit].
In the case of `COc1cccc(-c2c(C(=O)N/N=C/c3ccc(C)o3)nnn2-c2nonc2N)c1`, the Potency is reported as inconclusive: 116 nM [activator, full curve, poor fit].
In the case of `CSCC[C@H](NC(=O)OC(C)(C)C)C(=O)NCC1CCC(C(=O)N[C@@H](Cc2ccccc2)C(=O)O)CC1` (stereo not given in full), the Potency is reported as inconclusive: 2590 nM [falling, full curve, poor fit].
For `CCc1ccc(NC(=O)C2CCN(c3c(N4CCCC4)c(=O)c3=O)CC2)cc1`, the lipid storage change, negative = inhibition was inconclusive: 72.6%.
In the case of `COc1cccc(-n2cc(C(=O)O)c3ccccc3c2=O)c1`, the lipid storage change, negative = inhibition is reported as inconclusive: -24.4%.
For `COc1cc(OC)cc(C(=O)N2CCN(C(=O)c3cccc(F)c3)CC2)c1`, the lipid storage change, negative = inhibition was inconclusive: 23.5%.
In the case of `O=C(CCCCCn1c(=S)[nH]c2ccccc2c1=O)N1CCOCC1`, the Potency is reported as inconclusive: 23100 nM [falling, single point].
With `Cc1cccc(OCC(=O)N/N=C2/SCC(=O)N2Cc2ccco2)c1` the lipid storage change, negative = inhibition was inconclusive: 33.1%.
In the case of `Cc1ccc(S(=O)(=O)/N=C(/Nc2c(C)n(C)n(-c3ccccc3)c2=O)c2ccccc2)cc1`, the Potency is reported as inconclusive: 29100 nM [rising, single point].
For `COc1cccc(NC(=S)N(CCc2c(C)[nH]c3ccccc23)Cc2ccco2)c1`, the Potency was inconclusive: 1460 nM [activator, full curve].
In the case of `Cc1nc([N+](=O)[O-])cn1CC(=O)c1ccccc1`, the lipid storage change, negative = inhibition is reported as inconclusive: -3.39%.
With `COc1cccc(Nc2ncccc2C(=O)NCc2ccccc2)c1` the Potency was inconclusive: 6510 nM [rising, single point].
In the case of `CS(=O)(=O)c1ccc(NC(=O)CN2C(=O)C3CCCCC3C2=O)cc1` (stereo not given), the Potency is reported as inconclusive: 23100 nM [falling, single point].
With `O=c1cc(Cl)[nH]c(=O)n1Cc1ccc(F)cc1` the lipid storage change, negative = inhibition was inconclusive: 138%.
With `CC(C)CC(=O)NC(=S)NCc1ccccc1` the lipid storage change, negative = inhibition was inconclusive: 10.6%.
With `COCCNC(=O)Nc1ccc2c(c1)N(C)C(=O)c1ccccc1S2` the Potency was inconclusive: 2060 nM [activator, partial curve, poor fit].
With `CCOC(=O)[C@@H]1[C@H]2COc3ccccc3[C@H]2N2C(=O)N(c3ccc(C(F)(F)F)cc3)C(=O)[C@]12C` the Potency was active: 1460 nM.
For `O=C(COC(=O)C1CC2C=CC1C2)Nc1cccc(S(=O)(=O)N2CCOCC2)c1` (stereo not given), the lipid storage change, negative = inhibition was inconclusive: -25.7%.
In the case of `CN(C)c1ccc(C=C2C(=O)OC(C)(C(C)(C)C)OC2=O)cc1` (stereo not given), the lipid storage change, negative = inhibition is reported as inconclusive: 8.17%.
For `CCOC(=O)N1CCC(NC(=O)CCC(=O)N2CC(C)Oc3ccccc32)CC1` (stereo not given), the lipid storage change, negative = inhibition was inconclusive: 29.3%.
For `S=c1[nH]nc(-c2ccco2)n1/N=C/c1ccccc1`, the lipid storage change, negative = inhibition was inconclusive: -18.9%.
With `COc1cc(C(=O)N(Cc2ccc(N(C)C)cc2)C2CCS(=O)(=O)C2)cc(OC)c1OC` (stereo not given) the lipid storage change, negative = inhibition was inconclusive: 39.9%.
With `Nn1c(COc2ccccc2)nnc1SC(F)F` the lipid storage change, negative = inhibition was inconclusive: -19%.
In the case of `COc1cc(C(=O)OCC(=O)c2c[nH]c3ccccc23)ccc1OCC(=O)N1CCOCC1`, the Potency is reported as inconclusive: 29100 nM [activator, single point].

Source: PubChem BioAssay AID2685 (National Center for Advancing Translational Sciences (NCATS), 2010)
% is set by controls: 0 for no effect and ±100 for the full control effect; potency is the fitted concentration of half-maximal effect.
